Results from US20170239173A1, “TRANSDERMAL ABSORPTION ENHANCER AND TRANSDERMAL ABSORPTION ENHANCEMENT AID” (ASAHI KASEI KABUSHIKI KAISHA, priority 2014, published 2017).

Assay: Odor of the obtained equimolar salt
Conditions: equimolar salt as obtained

SMILES	Odor
COc1cc(C(O)C(=O)O)ccc1O.N=C(N)N (centres unmarked) [Production Example 32]	◯ (Vanilla-like)
COc1cc(C(O)C(=O)[O-])ccc1O.C[N+](C)(C)CCO (centres unmarked) [Production Example 10]	◯ (Vanilla-like)
